Results are given in words; binding and its absence hold for the method and conditions named. Binding seen in cells or lysates may run through a third protein. Some entries that bind do so weakly or less than the wild type.
Experiments:
[1] = target: T1, RIM1 (mouse (endogenous in cerebellar synaptosomes)) (UniProt Q99NE5); experiment: co-IP; lysate of mouse cerebellar synaptosomes (P21) incubated with anti-RIM1 antibody precoupled to GammaBind Plus Sepharose, western blot; rabbit IgG as negative control; also done with synaptosomes of Rapgef3/4-dKO and Prkce-cKO mice and after 8-pCPT (20 μM, 30 min), 8-pCPT + εV1-2 (5 µM, 30 min) or FR236924 (200 nM, 30 min)
T1 sequence: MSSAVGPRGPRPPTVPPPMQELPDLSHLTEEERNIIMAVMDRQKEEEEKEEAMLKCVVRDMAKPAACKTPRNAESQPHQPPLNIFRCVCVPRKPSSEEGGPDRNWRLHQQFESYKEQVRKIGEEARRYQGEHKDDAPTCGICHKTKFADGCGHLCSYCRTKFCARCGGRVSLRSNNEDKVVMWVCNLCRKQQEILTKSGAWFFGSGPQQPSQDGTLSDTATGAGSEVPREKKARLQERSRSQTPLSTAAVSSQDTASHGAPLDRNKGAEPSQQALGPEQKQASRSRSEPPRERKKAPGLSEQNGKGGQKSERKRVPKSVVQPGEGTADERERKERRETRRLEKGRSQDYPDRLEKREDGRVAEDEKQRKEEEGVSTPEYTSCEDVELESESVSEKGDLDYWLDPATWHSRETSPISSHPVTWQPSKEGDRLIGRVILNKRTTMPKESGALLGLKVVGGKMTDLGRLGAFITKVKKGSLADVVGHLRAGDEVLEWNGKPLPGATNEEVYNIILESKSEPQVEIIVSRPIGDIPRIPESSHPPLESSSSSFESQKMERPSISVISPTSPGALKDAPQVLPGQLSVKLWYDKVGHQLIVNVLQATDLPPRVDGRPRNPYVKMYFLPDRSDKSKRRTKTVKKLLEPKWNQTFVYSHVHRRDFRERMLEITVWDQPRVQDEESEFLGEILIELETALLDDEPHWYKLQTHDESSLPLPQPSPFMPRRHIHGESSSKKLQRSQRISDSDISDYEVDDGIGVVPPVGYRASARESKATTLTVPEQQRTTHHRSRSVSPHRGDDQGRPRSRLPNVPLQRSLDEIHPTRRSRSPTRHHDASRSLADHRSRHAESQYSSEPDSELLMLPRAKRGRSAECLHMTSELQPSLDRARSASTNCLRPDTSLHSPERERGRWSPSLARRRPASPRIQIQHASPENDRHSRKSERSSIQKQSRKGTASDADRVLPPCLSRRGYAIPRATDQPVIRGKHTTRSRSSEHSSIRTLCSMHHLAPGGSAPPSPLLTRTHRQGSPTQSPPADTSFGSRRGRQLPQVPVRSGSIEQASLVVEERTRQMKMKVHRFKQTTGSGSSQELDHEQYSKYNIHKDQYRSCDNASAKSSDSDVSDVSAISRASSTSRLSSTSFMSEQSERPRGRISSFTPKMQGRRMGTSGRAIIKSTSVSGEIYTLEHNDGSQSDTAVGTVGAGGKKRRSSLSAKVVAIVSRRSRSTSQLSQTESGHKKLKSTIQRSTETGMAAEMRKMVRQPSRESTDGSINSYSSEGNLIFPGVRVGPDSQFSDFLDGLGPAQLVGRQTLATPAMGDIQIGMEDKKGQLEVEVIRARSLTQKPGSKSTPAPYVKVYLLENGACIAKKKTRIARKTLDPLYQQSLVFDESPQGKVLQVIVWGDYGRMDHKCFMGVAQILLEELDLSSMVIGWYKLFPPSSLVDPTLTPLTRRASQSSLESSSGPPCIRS

Protein sequences, listed by entry. Tags and fused reporters are not part of them.
UniProt P16054: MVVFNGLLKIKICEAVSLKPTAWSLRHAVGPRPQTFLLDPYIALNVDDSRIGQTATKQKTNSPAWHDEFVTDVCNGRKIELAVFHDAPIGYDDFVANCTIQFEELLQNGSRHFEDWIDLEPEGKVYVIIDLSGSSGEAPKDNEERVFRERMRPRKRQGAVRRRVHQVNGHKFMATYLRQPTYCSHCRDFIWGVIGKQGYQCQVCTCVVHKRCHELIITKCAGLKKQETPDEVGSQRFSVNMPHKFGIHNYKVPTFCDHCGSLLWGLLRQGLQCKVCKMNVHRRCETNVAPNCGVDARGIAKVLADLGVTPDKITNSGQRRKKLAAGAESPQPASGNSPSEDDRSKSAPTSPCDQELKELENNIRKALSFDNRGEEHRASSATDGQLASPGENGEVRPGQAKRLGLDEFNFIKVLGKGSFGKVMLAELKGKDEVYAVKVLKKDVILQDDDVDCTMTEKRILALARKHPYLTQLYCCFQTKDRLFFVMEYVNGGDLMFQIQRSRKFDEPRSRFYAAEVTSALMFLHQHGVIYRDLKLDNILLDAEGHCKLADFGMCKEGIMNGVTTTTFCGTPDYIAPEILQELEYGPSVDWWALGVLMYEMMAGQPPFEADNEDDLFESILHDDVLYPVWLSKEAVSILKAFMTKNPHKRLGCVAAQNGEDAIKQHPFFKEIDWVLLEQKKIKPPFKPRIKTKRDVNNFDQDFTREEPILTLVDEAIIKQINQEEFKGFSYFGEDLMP
UniProt Q9EQZ6: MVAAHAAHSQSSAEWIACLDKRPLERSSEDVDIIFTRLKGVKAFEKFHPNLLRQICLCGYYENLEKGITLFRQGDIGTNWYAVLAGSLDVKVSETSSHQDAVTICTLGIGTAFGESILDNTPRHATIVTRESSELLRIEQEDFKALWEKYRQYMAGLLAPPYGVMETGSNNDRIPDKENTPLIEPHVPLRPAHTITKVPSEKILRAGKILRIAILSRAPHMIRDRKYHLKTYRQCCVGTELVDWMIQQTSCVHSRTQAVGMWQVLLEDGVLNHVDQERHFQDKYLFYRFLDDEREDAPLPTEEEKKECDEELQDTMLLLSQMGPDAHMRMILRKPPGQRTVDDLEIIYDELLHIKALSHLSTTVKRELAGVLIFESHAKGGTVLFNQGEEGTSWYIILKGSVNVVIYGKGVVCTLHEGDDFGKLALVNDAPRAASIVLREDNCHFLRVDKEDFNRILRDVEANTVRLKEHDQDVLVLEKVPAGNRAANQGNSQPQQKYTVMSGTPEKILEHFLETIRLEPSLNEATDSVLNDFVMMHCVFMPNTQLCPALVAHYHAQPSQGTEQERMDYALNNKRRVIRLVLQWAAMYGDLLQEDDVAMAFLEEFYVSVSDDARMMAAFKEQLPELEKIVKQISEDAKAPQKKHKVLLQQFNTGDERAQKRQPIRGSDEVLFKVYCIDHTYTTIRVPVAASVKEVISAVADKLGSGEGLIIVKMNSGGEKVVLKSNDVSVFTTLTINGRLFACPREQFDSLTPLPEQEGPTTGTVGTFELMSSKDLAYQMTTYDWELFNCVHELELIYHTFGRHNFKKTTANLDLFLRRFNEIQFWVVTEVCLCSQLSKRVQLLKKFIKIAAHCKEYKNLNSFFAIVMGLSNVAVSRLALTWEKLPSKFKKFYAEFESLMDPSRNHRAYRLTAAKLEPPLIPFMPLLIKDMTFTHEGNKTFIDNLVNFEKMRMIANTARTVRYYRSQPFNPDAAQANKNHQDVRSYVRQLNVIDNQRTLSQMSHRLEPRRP
UniProt Q8VCC8: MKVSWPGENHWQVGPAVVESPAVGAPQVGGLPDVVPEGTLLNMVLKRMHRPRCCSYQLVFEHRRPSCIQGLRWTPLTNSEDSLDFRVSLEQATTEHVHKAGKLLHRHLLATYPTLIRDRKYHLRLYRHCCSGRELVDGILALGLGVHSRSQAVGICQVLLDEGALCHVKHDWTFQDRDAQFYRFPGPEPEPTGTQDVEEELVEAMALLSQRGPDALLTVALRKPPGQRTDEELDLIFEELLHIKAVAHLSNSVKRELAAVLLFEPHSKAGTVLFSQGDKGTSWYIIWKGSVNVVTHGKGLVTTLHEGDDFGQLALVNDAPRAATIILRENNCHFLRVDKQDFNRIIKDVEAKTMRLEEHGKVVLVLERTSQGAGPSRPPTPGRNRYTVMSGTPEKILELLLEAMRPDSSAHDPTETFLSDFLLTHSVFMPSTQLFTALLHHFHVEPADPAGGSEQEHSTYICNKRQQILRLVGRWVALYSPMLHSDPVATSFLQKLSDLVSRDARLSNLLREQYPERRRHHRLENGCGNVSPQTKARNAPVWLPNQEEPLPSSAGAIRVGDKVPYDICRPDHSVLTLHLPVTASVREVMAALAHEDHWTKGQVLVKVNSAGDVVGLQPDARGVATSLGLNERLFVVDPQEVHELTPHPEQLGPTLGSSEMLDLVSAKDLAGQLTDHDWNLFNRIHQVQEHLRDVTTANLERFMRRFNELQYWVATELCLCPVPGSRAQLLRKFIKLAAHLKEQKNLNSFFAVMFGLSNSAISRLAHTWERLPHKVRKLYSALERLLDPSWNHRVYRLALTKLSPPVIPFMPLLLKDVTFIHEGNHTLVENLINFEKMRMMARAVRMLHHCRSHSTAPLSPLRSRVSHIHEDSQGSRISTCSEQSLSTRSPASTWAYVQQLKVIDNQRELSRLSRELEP
UniProt Q4KUS2: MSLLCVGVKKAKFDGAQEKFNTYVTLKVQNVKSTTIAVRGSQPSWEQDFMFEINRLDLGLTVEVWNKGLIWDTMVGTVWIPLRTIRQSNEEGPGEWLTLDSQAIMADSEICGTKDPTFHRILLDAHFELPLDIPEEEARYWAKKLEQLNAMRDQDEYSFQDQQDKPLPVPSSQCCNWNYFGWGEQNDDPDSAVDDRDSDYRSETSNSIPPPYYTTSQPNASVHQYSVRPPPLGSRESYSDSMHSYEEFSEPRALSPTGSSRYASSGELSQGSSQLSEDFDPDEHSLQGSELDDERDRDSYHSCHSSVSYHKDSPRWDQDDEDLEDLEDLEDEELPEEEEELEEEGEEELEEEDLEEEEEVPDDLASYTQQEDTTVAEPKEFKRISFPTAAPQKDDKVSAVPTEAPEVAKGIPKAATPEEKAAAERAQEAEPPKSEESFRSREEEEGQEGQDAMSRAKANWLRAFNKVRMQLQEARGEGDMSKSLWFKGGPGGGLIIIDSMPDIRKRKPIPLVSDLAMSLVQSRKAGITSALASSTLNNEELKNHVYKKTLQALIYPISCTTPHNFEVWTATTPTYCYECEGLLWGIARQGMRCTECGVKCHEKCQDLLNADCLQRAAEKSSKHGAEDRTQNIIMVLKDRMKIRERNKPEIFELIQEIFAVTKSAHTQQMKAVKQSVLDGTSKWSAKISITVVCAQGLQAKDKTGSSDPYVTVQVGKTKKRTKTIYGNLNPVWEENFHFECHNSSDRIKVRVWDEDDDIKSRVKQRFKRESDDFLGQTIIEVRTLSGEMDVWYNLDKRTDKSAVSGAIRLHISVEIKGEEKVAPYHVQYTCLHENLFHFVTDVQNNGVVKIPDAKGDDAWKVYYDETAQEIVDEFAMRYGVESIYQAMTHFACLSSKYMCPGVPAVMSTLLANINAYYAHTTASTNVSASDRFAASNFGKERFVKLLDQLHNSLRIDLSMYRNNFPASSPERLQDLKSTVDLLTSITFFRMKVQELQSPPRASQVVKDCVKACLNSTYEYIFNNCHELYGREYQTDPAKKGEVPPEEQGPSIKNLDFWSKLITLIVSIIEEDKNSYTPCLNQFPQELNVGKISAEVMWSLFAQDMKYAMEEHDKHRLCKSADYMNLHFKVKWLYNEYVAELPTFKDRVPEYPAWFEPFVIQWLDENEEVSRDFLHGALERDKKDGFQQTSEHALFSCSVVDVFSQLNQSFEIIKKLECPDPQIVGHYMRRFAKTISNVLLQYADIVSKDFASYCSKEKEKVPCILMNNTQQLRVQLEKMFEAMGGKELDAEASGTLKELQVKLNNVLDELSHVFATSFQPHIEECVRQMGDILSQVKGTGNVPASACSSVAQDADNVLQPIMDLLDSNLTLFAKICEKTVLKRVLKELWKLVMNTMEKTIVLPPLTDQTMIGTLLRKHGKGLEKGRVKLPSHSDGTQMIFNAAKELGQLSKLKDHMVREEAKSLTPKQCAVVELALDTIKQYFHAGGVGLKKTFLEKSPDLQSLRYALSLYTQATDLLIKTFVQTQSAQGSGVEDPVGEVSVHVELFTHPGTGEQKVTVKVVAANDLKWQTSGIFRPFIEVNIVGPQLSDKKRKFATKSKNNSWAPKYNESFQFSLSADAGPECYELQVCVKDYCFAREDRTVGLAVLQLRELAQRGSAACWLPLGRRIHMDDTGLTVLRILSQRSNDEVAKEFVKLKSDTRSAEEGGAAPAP
UniProt P09216: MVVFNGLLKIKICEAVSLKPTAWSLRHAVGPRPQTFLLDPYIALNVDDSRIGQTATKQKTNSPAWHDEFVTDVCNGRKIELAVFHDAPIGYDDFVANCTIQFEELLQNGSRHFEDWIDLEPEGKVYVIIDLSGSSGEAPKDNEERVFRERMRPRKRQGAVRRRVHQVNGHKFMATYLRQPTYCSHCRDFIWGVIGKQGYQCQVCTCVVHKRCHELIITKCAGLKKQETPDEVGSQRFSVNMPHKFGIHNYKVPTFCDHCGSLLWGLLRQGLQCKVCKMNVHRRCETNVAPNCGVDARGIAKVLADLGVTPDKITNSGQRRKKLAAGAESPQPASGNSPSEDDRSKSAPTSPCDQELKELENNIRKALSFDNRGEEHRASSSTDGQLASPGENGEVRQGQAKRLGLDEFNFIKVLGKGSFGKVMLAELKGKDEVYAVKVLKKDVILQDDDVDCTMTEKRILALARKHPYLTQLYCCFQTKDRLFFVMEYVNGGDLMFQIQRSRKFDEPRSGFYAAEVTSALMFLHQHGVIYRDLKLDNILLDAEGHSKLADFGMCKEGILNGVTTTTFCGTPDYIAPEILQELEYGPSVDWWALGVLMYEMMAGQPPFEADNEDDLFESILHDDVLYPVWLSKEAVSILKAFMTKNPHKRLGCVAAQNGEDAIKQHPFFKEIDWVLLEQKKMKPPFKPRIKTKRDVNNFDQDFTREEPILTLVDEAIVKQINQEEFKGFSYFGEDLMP

HA-RIM1α (rat) = HA-RIM1α (rat) (UniProt Q9JIR4); experiment: co-IP; lysate of HEK cells co-transfected with HA-RIM1α and His-PKCε, anti-HA antibody precoupled to GammaBind Plus Sepharose, western blot

Substance | binding [1] | binding (HA-RIM1α (rat))
PKCε (from UniProt P16054 1-737) (enzyme) | binds | –
EPAC2 (from UniProt Q9EQZ6 1-1011) | binds | –
EPAC1 (from UniProt Q8VCC8 1-918) | binds | –
Munc13-1 (from UniProt Q4KUS2 1-1712) | binds | –
His-PKCε (from UniProt P09216 1-737) (enzyme) | – | binds
